From the supplement of paper PMC10338343
± gives the standard deviation. Only a part is listed here, and it is no random draw. The uncertainty is large for many entries. The list shows a part of the results.

Assays:
[1] = system: MILI (PIWIL2) piRISC loaded with L1MC piRNA (26 nt); test: pre-steady-state target cleavage rate (min^-1); higher = faster piRNA-guided slicing of the target; details: guide: L1MC piRNA 5'p-UAACUAAAUACUAUGCAAGCUGUAGG; auxiliary factor: none (no GTSF1)
In short: (§1)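 With or without 500 nM GTSF1 partner protein, 1 nM active affinity-purified piRISC carrying one synthetic guide was mixed with 0.1 nM transcribed, DNA-blocked target RNA library in HEPES–potassium acetate buffer at 33 °C for 0–8 or 0–960 min. Uncleaved targets were sequenced and normalised to depth and to weakly complementary targets, three trials were pooled, and k3 was capped at 0.0001 min^-1. The pre-steady-state cleavage rate came from a burst-and-steady-state fit.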

[2] = system: MIWI (PIWIL1) piRISC loaded with L1MC piRNA (30 nt); test: as above; details: guide: L1MC piRNA 5'p-UAACUAAAUACUAUGCAAGCUGUAGGUCCU; auxiliary factor: none (no GTSF1)
In short: as §1

[3] = system: EfPiwi piRISC loaded with L1MC piRNA (26 nt); test: pre-steady-state target cleavage rate (min^-1); guide: L1MC piRNA 5'p-UAACUAAAUACUAUGCAAGCUGUAGG; MIWI and MILI are mouse PIWI proteins and EfPiwi is from a freshwater sponge; tags in brackets are library labels; higher = faster piRNA-guided slicing of the target
In short: as §1

[4] = auxiliary factor: 500 nM Ephydatia muelleri Gtsf1
[5] = auxiliary factor: none (no Gtsf1)

Row | Sequence | pre-steady-state target cleavage rate [1] | pre-steady-state target cleavage rate [2] | pre-steady-state target cleavage rate [3, 4] | pre-steady-state target cleavage rate [3, 5]
1 | UCCUGGAUGUCCAUGCAUAGUAUUUUGUUA | 0.00068 ± 0.012 | 0.00111 ± 0.0083 | 0.000213 ± 0.034 | 0.000321 ± 0.027
2 | UCCUCCUACAGCUUCCAUACUAUUUAGUUA | 0.000686 ± 0.0071 | 0.00145 ± 0.004 | 0.00222 ± 0.0027 | 0.000273 ± 0.014
3 | UCCUGGAACAGCUUGCAUAGUAAUUACAAA | 0.000844 ± 0.0072 | 0.00102 ± 0.0076 | 0.00292 ± 0.0029 | 0.000471 ± 0.014
4 | UCCUGCUACAGCUUGCUAAGUAUUUAGUAA | 0.00125 ± 0.0046 | 0.00149 ± 0.0031 | 0.0012 ± 0.0039 | 0.000182 ± 0.038
5 | UCCUGGAUCAGCUUGCAUACAAUUUAGUUA | 0.0021 ± 0.0029 | 0.00266 ± 0.0028 | 0.00126 ± 0.0034 | 0.000439 ± 0.014
6 | UCCUGGAACAGCAUGCAUAGUAUUUUCAAA | 0.00117 ± 0.0044 | 0.00132 ± 0.0047 | 0.00122 ± 0.0024 | 0.000103 ± 0.036
7 | UCCUGGAUCAGCUUGCAUAGAUUUUUCAAA | 0.00076 ± 0.0055 | 0.000709 ± 0.0062 | 0.000455 ± 0.0059 | 0.000181 ± 0.036
8 | UCCUGCUUCAGCUUGCAUAGUAUUUUCAAA | 0.00131 ± 0.005 | 0.00224 ± 0.0043 | 0.00362 ± 0.0023 | 0.000311 ± 0.015
9 | UCCUGGAUGUGCUUGCAUUCUAUUUAGAAA | 0.000323 ± 0.017 | 0.000576 ± 0.01 | 0.000361 ± 0.0088 | 0.000227 ± 0.034
10 | UCCUGCUACAGCUUCGUUAGUAUUUAGUAA | 0.00158 ± 0.0029 | 0.00106 ± 0.0048 | 0.000873 ± 0.0056 | 0.000265 ± 0.021
11 | UCCUGGAUGUCCUACCAUAGUAUUUAGUUA | 0.00147 ± 0.004 | 0.00138 ± 0.0033 | 0.00203 ± 0.0048 | 0.000479 ± 0.013
12 | UCCUCCUACAGCUUGCAUAAGUAUUUAGUUA | 0.00139 ± 0.0038 | 0.000918 ± 0.0073 | 0.00345 ± 0.0019 | 0.000383 ± 0.012
13 | UCCUGGAUGUCCUAGGAUAGUAUUUAGUUA | 0.00181 ± 0.0032 | 0.000716 ± 0.0083 | 0.000327 ± 0.0072 | 0.000101 ± 0.062
14 | UCCUGCUACAGCUUCCAUAGUAUUAAGUUA | 0.000559 ± 0.0092 | 0.000731 ± 0.0094 | 0.00173 ± 0.0021 | 0.000157 ± 0.036
15 | UCCUGGAUGUCGAAGACAUAGUAUUUAGUUA | 0.000548 ± 0.0065 | 0.000613 ± 0.012 | 0.00104 ± 0.0054 | 0.000274 ± 0.026
16 | UCCUGCUACAGCUUGCAUAGUUAAAUCAAA [g10:g25:cont:t1A] | 0.000844 ± 0.0078 | 0.000348 ± 0.012 | 0.00139 ± 0.0073 | 0.000178 ± 0.061
17 | UCCUCCUACAGCAAGCAUAGUAUUUUCAAA | 0.00137 ± 0.004 | 0.000945 ± 0.0075 | 0.00103 ± 0.0079 | 0.000294 ± 0.022
18 | UCCUCCUAGAGCUUGCAUAGUAUUUUCAAA | 0.000733 ± 0.0068 | 0.0012 ± 0.0033 | 0.00252 ± 0.0022 | 0.000337 ± 0.016
19 | UCCUGCUACAGCUUGCAUAGUAUUAAGAUA | 0.00127 ± 0.0044 | 0.0027 ± 0.0031 | 0.00501 ± 0.0016 | 0.000638 ± 0.0098
20 | UCCUCCUACAGCUUGCAUAGAUUUAGUUA | 0.00147 ± 0.004 | 0.000381 ± 0.0089 | 0.00442 ± 0.0029 | 0.000586 ± 0.009
21 | UCCUGCUACAGCUUGCACUAGUAUUUAGUUA | 0.00181 ± 0.004 | 0.000634 ± 0.013 | 0.00557 ± 0.0023 | 0.000639 ± 0.0082
22 | UCCUCCUACAGCUUCGUUAGUAUUUUCAAA | 0.000137 ± 0.018 | 0.000167 ± 0.015 | 0.000928 ± 0.0078 | 0.000224 ± 0.025
23 | UCCUCCUACAGCUUGCAUUCAAUUUAGUAA | 0.000693 ± 0.0078 | 0.000743 ± 0.0091 | 0.000845 ± 0.0054 | 0.000382 ± 0.011

Pulled one by one from above (2):
Row | Sequence | pre-steady-state target cleavage rate [1] | pre-steady-state target cleavage rate [2] | pre-steady-state target cleavage rate [3, 4] | pre-steady-state target cleavage rate [3, 5]
10 | UCCUGCUACAGCUUCGUUAGUAUUUAGUAA | 0.00158 ± 0.0029 | 0.00106 ± 0.0048 | 0.000873 ± 0.0056 | 0.000265 ± 0.021
20 | UCCUCCUACAGCUUGCAUAGAUUUAGUUA | 0.00147 ± 0.004 | 0.000381 ± 0.0089 | 0.00442 ± 0.0029 | 0.000586 ± 0.009
